Experimental data from patent US20250179195A1.
Results are given in words; binding and its absence hold for the method and conditions named. Some binding calls cover weakened binding; strength is not graded here.

By UniProt entry, the sequences of proteins in these tests, tags left out. Where a name states a change or a piece, a line headed by the entry shows the natural chain unless it says otherwise. Residues count along the entry.
UniProt P36888: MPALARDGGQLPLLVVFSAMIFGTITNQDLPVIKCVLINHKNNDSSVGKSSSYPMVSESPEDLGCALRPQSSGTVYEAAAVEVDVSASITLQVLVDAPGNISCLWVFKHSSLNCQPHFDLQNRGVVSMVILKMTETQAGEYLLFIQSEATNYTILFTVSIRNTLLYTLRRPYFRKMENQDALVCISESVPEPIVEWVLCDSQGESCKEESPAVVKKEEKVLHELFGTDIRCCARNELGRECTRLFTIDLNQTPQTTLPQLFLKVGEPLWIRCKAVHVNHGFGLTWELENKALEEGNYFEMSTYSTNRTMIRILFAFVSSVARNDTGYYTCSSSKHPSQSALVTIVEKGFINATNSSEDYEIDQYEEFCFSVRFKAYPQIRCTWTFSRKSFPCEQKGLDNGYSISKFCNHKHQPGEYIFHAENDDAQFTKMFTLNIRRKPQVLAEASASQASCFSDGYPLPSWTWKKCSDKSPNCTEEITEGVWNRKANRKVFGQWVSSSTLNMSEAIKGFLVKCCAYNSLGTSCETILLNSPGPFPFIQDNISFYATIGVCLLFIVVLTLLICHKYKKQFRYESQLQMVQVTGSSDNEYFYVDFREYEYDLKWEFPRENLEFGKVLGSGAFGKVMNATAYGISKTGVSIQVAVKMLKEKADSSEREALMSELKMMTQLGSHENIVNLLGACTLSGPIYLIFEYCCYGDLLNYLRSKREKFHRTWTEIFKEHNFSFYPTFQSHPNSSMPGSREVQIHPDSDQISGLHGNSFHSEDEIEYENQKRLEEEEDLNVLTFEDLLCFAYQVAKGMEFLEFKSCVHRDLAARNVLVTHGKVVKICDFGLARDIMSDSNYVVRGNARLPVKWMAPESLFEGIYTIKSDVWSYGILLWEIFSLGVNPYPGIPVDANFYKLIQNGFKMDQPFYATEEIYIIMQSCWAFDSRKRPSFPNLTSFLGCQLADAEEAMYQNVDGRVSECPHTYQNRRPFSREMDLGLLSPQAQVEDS
UniProt P49771, residues 27-185: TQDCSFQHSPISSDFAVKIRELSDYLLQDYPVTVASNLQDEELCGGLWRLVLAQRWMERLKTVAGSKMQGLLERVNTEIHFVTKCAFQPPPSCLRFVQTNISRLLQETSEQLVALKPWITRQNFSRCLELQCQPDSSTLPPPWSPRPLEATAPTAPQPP

Biological target: recombinant human FLT3 ECD his-tagged fusion receptor (Sino Biological) (human) (UniProt P36888)
Test: bio-layer interferometry (Octet QK384); FLT3-his immobilized on anti-penta-HIS (HIS1K) biosensor; 100 nM FLT3L without antibody, 300 s association

For “FLT3 ligand (from UniProt P49771 27-185)”, the binding was “binds”.
